# According to PubChem BioAssay AID504467 (National Center for Advancing Translational Sciences (NCATS), 2011):
# The whole screen tested about 330,000 compounds, of which about 7,700 (2.3%) were called active. Inconclusive results, whose numbers are uncertain, are shown with a selection of clear calls. The call rests on the fitted dose curve; in most records, active means well fitted inhibition curve with a large enough effect; inconclusive means small, poorly fitted or top-dose-only effect, or effect the other way; inactive means flat fitted curve, though single readings scatter. Where the call is inconclusive, the potency comes from a doubtful curve fit.
# Test: qHTS screen for small molecules that inhibit ELG1-dependent DNA repair in human embryonic kidney (HEK293T) cells expressing luciferase-tagged ELG1; further: nearly all actives have a fitted effect of over 55% in size
# Conditions: HEK293T ELG1-luciferase reporter, luminescence, 16 h, DNA damage induced by 5-fluorouridine; activity change, negative = inhibition: at 46.1 µM (top of the series)
# How it was run: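 5-Fluorouridine DNA damage + compound/DMSO, 2,000 cells/well, 16 h, 37 °C/5% CO2. ONE-Glo, 30 min RT, luminescence. Readout = decrease in reporter signal.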
# On the % scale 0 is the no-effect control and ±100 the full control effect; potency means the concentration at half of the fitted maximal effect.
SMILES,Potency,"activity change, negative = inhibition"
O=C(Nc1ccccc1)Nc1ccc2ncoc2c1,"inconclusive: 16.4 µM [activator, partial curve]",
Cc1ccc(S(=O)(=O)NCC2CCC(C(=O)NC3CCCCC3)CC2)cc1 (stereo not given),,inactive: 8.2%
c1csc(CNc2ccc3c(c2)OCCO3)c1,"inconclusive: 7.31 µM [activator, partial curve]",
Cc1ccc(C(=O)NCC(=O)OC(C)C(=O)Nc2ccc(N(C)C)cc2)s1 (stereo not given),"inconclusive: 11.6 µM [activator, partial curve, poor fit]",
CC(=O)N1CCc2c(sc3c2c(=O)n(Cc2ccccc2)c(=O)n3CC(=O)NCC2CCCO2)C1 (stereo not given),"inconclusive: 18.3 µM [activator, partial curve, poor fit]",
COc1ccc(/C(=C\Nc2ccc(C)c(C)c2)C(C)=O)cc1OC,"inconclusive: 20.6 µM [inhibitor, single point]",
O=C(CCS(=O)(=O)c1ccc(Br)cc1)N1CCN(c2ccc(Cl)cc2)CC1,,inactive: -13.6%
CC1CCCN(CCCOc2ccc(Cl)cc2Br)C1 (stereo not given),"inconclusive: 29.1 µM [activator, partial curve, poor fit]",
Cc1ccc(C(=O)N2c3ccccc3CC2C)o1 (stereo not given),"inconclusive: 9.2 µM [activator, partial curve]",
COc1ccccc1N1CCN(S(=O)(=O)c2ccc(-c3cnc(C4CC4)o3)cc2)CC1,,inactive: -7.4%
COc1ccc(CCn2nnnc2C(c2ccccc2)N2CCN(C)CC2)cc1OC (stereo not given),"inconclusive: 10 µM [activator, partial curve, poor fit]",
CCOc1ccc(Nc2ccc3nonc3c2[N+](=O)[O-])cc1,"inconclusive: 29.1 µM [inhibitor, single point]",
CCOC(=O)Oc1ccc2c(=O)c(Oc3cccc(C)c3)coc2c1,,inactive: 0%
Cc1ccc2[nH]c3c(=O)n(CCc4cnc[nH]4)cnc3c2c1,"inconclusive: 20.6 µM [activator, partial curve]",
COc1ccccc1NC(=O)C1CCN(S(=O)(=O)c2ccc3c(c2)NC(=O)C(C)S3)CC1 (stereo not given),,inactive: -0.123%
CC(=O)Nc1ccc(NC(=O)c2cccc3ccccc23)cc1,,inactive: -0.609%
COc1ccc(N/C=C2\CCc3ccccc3C2=O)cc1,"inconclusive: 0.461 µM [activator, full curve]",
Cc1ccc(N2CCN(CC(O)COc3cccc4ccccc34)CC2)cc1 (stereo not given),,inactive: -16.3%
O=C(N/N=C/c1ccc(N2CCOCC2)cc1)c1cccs1,"inconclusive: 18.3 µM [activator, partial curve]",
COc1ccc(CNC(=O)CN2c3ccccc3S(=O)(=O)c3ccccc32)cc1,,inactive: -17.3%
COCc1cccc(C(=O)NC(c2ccccc2)c2ccccc2)c1,,inactive: 0.178%
CCN1CCN(c2ncnc3scc(-c4ccc(C)cc4)c23)CC1,"inconclusive: 23.1 µM [inhibitor, single point]",
COc1ccccc1N1CN(S(=O)(=O)c2ccc(C)cc2)c2nc3ccccc3nc21,,inactive: 10.9%

SMILES,Potency,"activity change, negative = inhibition"
COc1ccc(CCN(C)C(=O)c2ccc(S(=O)(=O)Nc3ccccc3C)cc2)cc1OC,,inactive: -13.2%
CCOC(=O)Cc1ccc(NC(=O)c2ccc(C(C)(C)C)cc2)cc1,active: 18.4 µM,
Cc1cccc(N(CC(=O)Nc2ccc(-c3nc4ccc(C)cc4s3)cc2)S(C)(=O)=O)c1,"inconclusive: 18.4 µM [activator, partial curve]",
CCN(C(=O)COC(=O)CNS(=O)(=O)c1ccc(SC)c([N+](=O)[O-])c1)C1CCCCC1,"inconclusive: 6.51 µM [activator, single point]",
Cc1sc2ncn(CCn3cnc4sc(C)c(C)c4c3=O)c(=O)c2c1C,"inconclusive: 18.4 µM [inhibitor, single point]",
Cc1nc2ccccc2nc1N/N=C/c1ccc(O)cc1,"inconclusive: 11.6 µM [activator, partial curve]",
O=C(NCC(c1ccco1)N1CCc2ccccc2C1)c1cccc([N+](=O)[O-])c1 (stereo not given),,inactive: -8.79%
O=C(CN1C(=O)c2ccccc2C1=O)NCc1ccccn1,,inactive: -2.92%
O=C(CSc1nnc(CNC(=O)c2ccco2)o1)Nc1ccc(Br)cc1,,inactive: 25.4%
Cc1ccc(C2=NC3(CCCC3)NC2=S)cc1,"inconclusive: 18.3 µM [activator, partial curve]",
CC(Oc1ccccc1Br)C(=O)N1CCc2ccccc21 (stereo not given),"inconclusive: 29.1 µM [activator, single point]",
CC(C)OC(=O)C[N+](C)(C)CCN1C(=O)C2C(c3ccccc3)C=CC(c3ccccc3)C2C1=O (stereo not given),,inactive: -12%
COc1ccc2c(c1)CCCC21NC(=O)N(CC(=O)NCc2cccs2)C1=O (stereo not given),,inactive: -2.04%
COc1ccc(C(=O)C[n+]2ccc3c(c2)nc(-c2ccc(OC)cc2OC)n3C)cc1,"inconclusive: 32.6 µM [inhibitor, partial curve, poor fit]",
Cc1c(Cl)cccc1NC(=O)c1cc(-c2ccco2)on1,"inconclusive: 13 µM [activator, partial curve]",
O=C(Cn1c(-c2ccccc2)c[n+]2ccsc12)c1ccccc1,"inconclusive: 7.3 µM [inhibitor, partial curve]",
COc1ccc2nc(NC(=O)c3cccnc3SC)sc2c1,"inconclusive: 14.6 µM [activator, partial curve]",
O=c1[nH]c2cc3c(cc2cc1CN(CCCO)C(=S)NCc1ccco1)OCO3,"inconclusive: 29.1 µM [inhibitor, single point]",
CCN1CCN(CCc2nc3cc(NC(=O)COc4ccccc4)ccc3n2C)CC1,"inconclusive: 25.9 µM [activator, partial curve, poor fit]",
Cc1cc(C)n(-c2nc3ccccc3nc2N2CCN(S(=O)(=O)c3ccc(F)c(C)c3)CC2)n1,,inactive: -3.35%
O=C(c1cccc(F)c1)N1CCN(c2cc(N3CCCCC3)c(F)cc2[N+](=O)[O-])CC1,"inconclusive: 5.8 µM [inhibitor, partial curve, poor fit]",
CC(C)(C)[C@H]1C=C(C(=O)NCc2ccccc2)O[C@@H](OCc2ccc(CO)cc2)C1,"inconclusive: 29.1 µM [inhibitor, single point]",

# Some of the entries above, reformatted.
SMILES | Potency | activity change, negative = inhibition
COc1ccc2nc(NC(=O)c3cccnc3SC)sc2c1 | inconclusive: 14.6 µM [activator, partial curve] | 
O=c1[nH]c2cc3c(cc2cc1CN(CCCO)C(=S)NCc1ccco1)OCO3 | inconclusive: 29.1 µM [inhibitor, single point] | 
CCN1CCN(CCc2nc3cc(NC(=O)COc4ccccc4)ccc3n2C)CC1 | inconclusive: 25.9 µM [activator, partial curve, poor fit] | 
